Cleaved PARP after 72 h of treatment

Source: doi:10.1371/journal.pone.0140310, primary screening data, rounded.

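The test systems are human melanoma cell lines, treated with two drugs together for 72 h and then stained and imaged. Values are the share of nuclei positive for cleaved PARP as a percentage of the same share in the DMSO control: 100 is the control level, higher means more apoptosis. Concentrations were fixed for each drug; these are the higher of two levels. The file gives one value for each pair and line, without errors, so small differences may be noise. Basal and induced levels differ widely between cell lines.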 An unselected part of the screen is shown. A dash means that no value is listed here.

Drugs:
dovitinib (0.5 µM): CN1CCN(c2ccc3nc(-c4c(N)c5c(F)cccc5[nH]c4=O)[nH]c3c2)CC1
pazopanib (2 µM): Cc1ccc(Nc2nccc(N(C)c3ccc4c(C)n(C)nc4c3)n2)cc1S(N)(=O)=O
selumetinib (0.075 µM): Cn1cnc2c(F)c(Nc3ccc(Br)cc3Cl)c(C(=O)NOCCO)cc21
LFM-A13 (10 µM): C/C(O)=C(\C#N)C(=O)Nc1cc(Br)ccc1Br
FH535 (5 µM): Cc1cc([N+](=O)[O-])ccc1NS(=O)(=O)c1cc(Cl)ccc1Cl
OSU-03012 (5 µM): NCC(=O)Nc1ccc(-n2nc(C(F)(F)F)cc2-c2ccc3c(ccc4ccccc43)c2)cc1
decitabine (0.5 µM): Nc1ncn([C@H]2C[C@H](O)[C@@H](CO)O2)c(=O)n1
tanespimycin (0.01 µM): C=CCNC1=C2C[C@@H](C)C[C@H](OC)[C@H](O)[C@@H](C)/C=C(\C)[C@H](OC(N)=O)[C@@H](OC)/C=C\C=C(/C)C(=O)NC(=CC1=O)C2=O

Combination | WM1745 | MeWo | SK-MEL-2 | LB2518-MEL | WM451Lu | WM115 | COLO 829 | RPMI-7951 | A2058 | WM3619
FH535 and dovitinib | - | 118 | 72.3 | 410 | 100 | 224 | 145 | 273 | 1140 | 81.4
decitabine and pazopanib | 94.3 | 91.2 | 47.3 | 206 | 122 | 116 | 125 | 140 | 148 | 87.4
selumetinib and OSU-03012 | 956 | 117 | 882 | 225 | 236 | 434 | 222 | 80.1 | 108 | 108
LFM-A13 and decitabine | - | 240 | 188 | 181 | 117 | 124 | 109 | 135 | 273 | 107
OSU-03012 and tanespimycin | 107 | 96.0 | 863 | 123 | 97.3 | 474 | 142 | 202 | 96.8 | 141
decitabine and OSU-03012 | 73.9 | 112 | 254 | 274 | 67.3 | 53.2 | 197 | 111 | 90.1 | 221
dovitinib and selumetinib | 181 | 751 | 353 | 281 | 187 | 105 | 229 | 60.1 | 943 | 138
decitabine and tanespimycin | 173 | 337 | 156 | 549 | 505 | 827 | 175 | 336 | 605 | 219
tanespimycin and dovitinib | 208 | 220 | 150 | 160 | 46.6 | 1580 | 114 | 418 | 669 | 187
LFM-A13 and selumetinib | - | 102 | 196 | 189 | 143 | 236 | 227 | 88.4 | 145 | 109
FH535 and selumetinib | - | 163 | 254 | - | 287 | 91.7 | 277 | 50.2 | 106 | 159
dovitinib and OSU-03012 | 184 | 392 | 579 | 172 | 70.4 | 260 | 201 | 120 | 804 | 183
pazopanib and selumetinib | 145 | 74.9 | 175 | 174 | 273 | 317 | 136 | 232 | 110 | 132
decitabine and selumetinib | 119 | 142 | 348 | 141 | 135 | 63.6 | 303 | 137 | 116 | 116
FH535 and tanespimycin | - | 114 | 28.1 | 156 | 274 | 433 | 129 | 315 | 147 | 177
pazopanib and OSU-03012 | 518 | 68.5 | 402 | 91.1 | 144 | 138 | 233 | 91.1 | 59.4 | 1860
LFM-A13 and tanespimycin | - | 74.2 | 125 | 239 | 162 | 298 | 49.8 | 170 | 110 | 171
dovitinib and LFM-A13 | - | 222 | 229 | 232 | 90.5 | 457 | 140 | 236 | 650 | 130
pazopanib and FH535 | - | 183 | 66.8 | 69.1 | 216 | 137 | 219 | 132 | 139 | 109
selumetinib and tanespimycin | 211 | 153 | 750 | - | 68.2 | 3060 | 291 | 205 | 296 | 195
pazopanib and LFM-A13 | - | 36.9 | 64.2 | 50.7 | 54.1 | 41.6 | 107 | 313 | 111 | 95.8
FH535 and OSU-03012 | 299 | 29.8 | 343 | 132 | 134 | 62.3 | 111 | 35.3 | 121 | 2250
dovitinib and pazopanib | 174 | 208 | 101 | 469 | 82.0 | 461 | 202 | 96.4 | 870 | 168

For reference, 2 entries once more:

Combination,WM1745,MeWo,SK-MEL-2,LB2518-MEL,WM451Lu,WM115,COLO 829,RPMI-7951,A2058,WM3619
OSU-03012 and tanespimycin,107,96.0,863,123,97.3,474,142,202,96.8,141
FH535 and dovitinib,-,118,72.3,410,100,224,145,273,1140,81.4